From publication doi:10.1101/2021.01.13.426575
Results are given in words; binding and its absence hold for the method and conditions named. In cells and extracts the contact can be indirect. Binding can be weak; no strength is given.

Sequences of proteins named here, by UniProt entry; tags and fusion partners are left off. A change or cut given only in a name is not applied to a line headed by its entry.
UniProt Q9Y2G2: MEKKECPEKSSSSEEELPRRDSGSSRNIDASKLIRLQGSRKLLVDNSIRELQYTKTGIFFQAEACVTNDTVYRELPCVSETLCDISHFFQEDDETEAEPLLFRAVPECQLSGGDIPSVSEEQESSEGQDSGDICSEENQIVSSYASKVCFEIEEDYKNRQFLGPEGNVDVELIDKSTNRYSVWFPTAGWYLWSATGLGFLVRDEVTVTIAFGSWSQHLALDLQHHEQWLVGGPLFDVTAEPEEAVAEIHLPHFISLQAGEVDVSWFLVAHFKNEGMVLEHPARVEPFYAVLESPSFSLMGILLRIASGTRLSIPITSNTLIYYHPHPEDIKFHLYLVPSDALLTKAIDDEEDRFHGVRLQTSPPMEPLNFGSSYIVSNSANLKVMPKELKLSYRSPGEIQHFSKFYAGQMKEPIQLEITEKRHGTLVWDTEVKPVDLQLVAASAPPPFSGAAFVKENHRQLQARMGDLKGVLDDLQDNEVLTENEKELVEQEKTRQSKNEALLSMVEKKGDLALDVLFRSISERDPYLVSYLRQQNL
UniProt Q86TI2: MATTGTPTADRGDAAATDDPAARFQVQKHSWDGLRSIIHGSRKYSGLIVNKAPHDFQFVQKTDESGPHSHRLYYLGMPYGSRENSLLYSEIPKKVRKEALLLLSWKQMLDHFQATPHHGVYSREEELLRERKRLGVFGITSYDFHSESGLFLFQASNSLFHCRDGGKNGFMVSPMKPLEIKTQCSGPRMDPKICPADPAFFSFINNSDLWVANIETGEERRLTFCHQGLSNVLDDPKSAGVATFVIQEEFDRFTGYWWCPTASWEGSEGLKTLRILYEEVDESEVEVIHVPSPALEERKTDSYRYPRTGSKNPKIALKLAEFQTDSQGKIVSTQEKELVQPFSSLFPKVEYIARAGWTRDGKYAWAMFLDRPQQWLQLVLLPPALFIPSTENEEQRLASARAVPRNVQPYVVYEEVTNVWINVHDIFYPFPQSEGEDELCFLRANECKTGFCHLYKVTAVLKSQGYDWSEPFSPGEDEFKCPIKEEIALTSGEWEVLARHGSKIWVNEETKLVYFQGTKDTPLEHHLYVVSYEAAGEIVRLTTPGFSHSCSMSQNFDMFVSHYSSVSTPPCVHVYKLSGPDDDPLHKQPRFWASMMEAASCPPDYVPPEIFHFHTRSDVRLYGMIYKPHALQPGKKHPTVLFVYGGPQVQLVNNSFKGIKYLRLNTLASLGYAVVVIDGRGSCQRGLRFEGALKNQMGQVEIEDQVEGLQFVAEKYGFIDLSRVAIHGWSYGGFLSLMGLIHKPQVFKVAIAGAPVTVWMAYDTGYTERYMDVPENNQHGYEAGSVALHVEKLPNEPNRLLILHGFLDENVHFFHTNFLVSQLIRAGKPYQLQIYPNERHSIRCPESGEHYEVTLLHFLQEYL

Tests used:
Assay in all cases: co-IP
[1] = target: HA-tagged full-length CARD8 F370G (interface IIIb mutant) (human) (UniProt Q9Y2G2)
[2] = target: HA-tagged full-length CARD8 F405G (interface IIIa mutant) (human) (UniProt Q9Y2G2)
[3] = target: HA-tagged full-length CARD8 L368G (interface IIIb mutant) (human) (UniProt Q9Y2G2)
[4] = target: HA-tagged full-length CARD8 R394E (interface IIIa mutant) (human) (UniProt Q9Y2G2)

Measured: binding

DPP9, endogenous in THP-1 cells (from UniProt Q86TI2 1-863) (enzyme)
binds: all assays above
